Source: paper PMC5480884
Results are given in words; binding and its absence hold for the method and conditions named. Some results given as binding are weak or reduced against the parent protein; the word gives no strength. Where a sequence is shown, tags or fusion partners need not be part of it.

Biological target: T1, LacI-tagRFP-Pds5B (UniProt Q9NTI5)
T1 sequence: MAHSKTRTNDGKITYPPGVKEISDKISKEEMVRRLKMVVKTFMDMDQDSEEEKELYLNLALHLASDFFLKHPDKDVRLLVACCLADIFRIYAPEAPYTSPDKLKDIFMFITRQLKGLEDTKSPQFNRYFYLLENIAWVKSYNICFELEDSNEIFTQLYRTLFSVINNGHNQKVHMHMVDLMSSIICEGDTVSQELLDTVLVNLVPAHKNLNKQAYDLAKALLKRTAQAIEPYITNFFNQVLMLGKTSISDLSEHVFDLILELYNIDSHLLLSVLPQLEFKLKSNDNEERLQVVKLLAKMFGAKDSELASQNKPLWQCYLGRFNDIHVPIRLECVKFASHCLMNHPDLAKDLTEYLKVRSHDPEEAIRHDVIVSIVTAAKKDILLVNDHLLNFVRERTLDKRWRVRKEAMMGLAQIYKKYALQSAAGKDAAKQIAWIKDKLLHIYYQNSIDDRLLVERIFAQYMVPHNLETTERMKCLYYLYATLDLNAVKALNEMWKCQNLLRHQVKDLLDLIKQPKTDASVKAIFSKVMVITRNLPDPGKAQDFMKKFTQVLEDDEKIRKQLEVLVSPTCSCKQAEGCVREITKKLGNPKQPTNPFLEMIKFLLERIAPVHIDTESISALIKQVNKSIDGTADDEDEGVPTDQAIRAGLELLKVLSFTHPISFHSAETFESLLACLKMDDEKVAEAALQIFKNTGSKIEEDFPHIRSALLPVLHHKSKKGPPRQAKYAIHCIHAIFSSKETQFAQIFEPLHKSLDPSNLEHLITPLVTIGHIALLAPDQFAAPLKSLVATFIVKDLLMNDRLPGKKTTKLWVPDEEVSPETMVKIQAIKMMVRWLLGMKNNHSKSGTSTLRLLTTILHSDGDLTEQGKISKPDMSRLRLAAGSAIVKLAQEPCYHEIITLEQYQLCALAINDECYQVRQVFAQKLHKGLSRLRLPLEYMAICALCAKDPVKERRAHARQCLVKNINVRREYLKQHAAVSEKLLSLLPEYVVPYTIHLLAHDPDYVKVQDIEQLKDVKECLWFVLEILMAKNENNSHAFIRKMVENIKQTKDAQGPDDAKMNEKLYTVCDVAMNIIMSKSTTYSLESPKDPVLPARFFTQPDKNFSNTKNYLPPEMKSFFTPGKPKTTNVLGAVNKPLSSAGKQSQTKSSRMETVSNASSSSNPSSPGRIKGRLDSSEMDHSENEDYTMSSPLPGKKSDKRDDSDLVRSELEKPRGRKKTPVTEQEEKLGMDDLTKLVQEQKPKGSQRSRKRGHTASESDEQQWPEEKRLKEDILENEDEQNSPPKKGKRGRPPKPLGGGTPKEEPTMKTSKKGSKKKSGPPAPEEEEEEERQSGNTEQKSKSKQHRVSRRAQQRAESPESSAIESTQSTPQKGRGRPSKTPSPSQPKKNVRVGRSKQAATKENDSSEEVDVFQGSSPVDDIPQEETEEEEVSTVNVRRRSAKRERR
Assay: LacI/LacO tethering with immunofluorescence microscopy; LacI fusion tethered to a LacO array on chromosome 1 of U-2 OS-LacO Haspin-YFP cells; cells blocked in mitosis (STLC, nocodazol), chromosome spreads stained with antibodies against GFP and RFP

B1: Haspin-YFP (endogenously tagged Haspin) (enzyme, UniProt Q8TF76 1-798)
chain: MAASLPGPGSRLFRTYGAADGRRQRRPGREAAQWFPPQDRRRFFNSSGSSDASIGDPSQSDDPDDPDDPDFPGSPVRRRRRRPGGRVPKDRPSLTVTPKRWKLRARPSLTVTPRRLGLRARPPQKCSTPCGPLRLPPFPSRDSGRLSPDLSVCGQPRDGDELGISASLFSSLASPCPGSPTPRDSVISIGTSACLVAASAVPSGLHLPEVSLDRASLPCSQEEATGGAKDTRMVHQTRASLRSVLFGLMNSGTPEDSEFRADGKNMRESCCKRKLVVGNGPEGPGLSSTGKRRATGQDSCQERGLQEAVRREHQEASVPKGRIVPRGIDRLERTRSSRKSKHQEATETSLLHSHRFKKGQKLGKDSFPTQDLTPLQNVCFWTKTRASFSFHKKKIVTDVSEVCSIYTTATSLSGSLLSECSNRPVMNRTSGAPSSWHSSSMYLLSPLNTLSISNKKASDAEKVYGECSQKGPVPFSHCLPTEKLQRCEKIGEGVFGEVFQTIADHTPVAIKIIAIEGPDLVNGSHQKTFEEILPEIIISKELSLLSGEVCNRTEGFIGLNSVHCVQGSYPPLLLKAWDHYNSTKGSANDRPDFFKDDQLFIVLEFEFGGIDLEQMRTKLSSLATAKSILHQLTASLAVAEASLRFEHRDLHWGNVLLKKTSLKKLHYTLNGKSSTIPSCGLQVSIIDYTLSRLERDGIVVFCDVSMDEDLFTGDGDYQFDIYRLMKKENNNRWGEYHPYSNVLWLHYLTDKMLKQMTFKTKCNTPAMKQIKRKIQEFHRTMLNFSSATDLLCQHSLFK
  binding: binds
